The target in this experiment is human CYRI-BΔN (residues 26-324) of the CYRI-BΔN:Rac1Q61L fusion (human) (UniProt Q9NUQ9). In words: crystal structure; CYRI-BΔN-…-Rac1Q61L fusion with GppNHp and Mg2+, 3.1Å; Rac1 binds in trans to CYRI-BΔN of a symmetry mate; crystals at 279K, 8% PEG4,000, 0.1M Tris pH 8.5, 0.2M sodium acetate; both purified.

By UniProt entry, the sequences of proteins in these tests, tags left out. Where a name states a change or a piece, a line headed by the entry shows the natural chain unless it says otherwise. Residues count along the entry.
UniProt Q9NUQ9, residues 26-324: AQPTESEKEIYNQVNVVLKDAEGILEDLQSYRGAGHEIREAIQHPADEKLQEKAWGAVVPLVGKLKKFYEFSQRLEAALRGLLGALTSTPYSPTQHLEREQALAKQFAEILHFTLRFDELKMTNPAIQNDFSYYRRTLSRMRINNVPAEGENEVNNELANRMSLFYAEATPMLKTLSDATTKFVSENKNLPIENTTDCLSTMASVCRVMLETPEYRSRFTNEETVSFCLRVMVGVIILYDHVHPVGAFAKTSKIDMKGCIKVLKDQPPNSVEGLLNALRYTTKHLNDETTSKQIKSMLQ

Results are given in words; binding and its absence hold for the method and conditions named.

With “human CYRI-BΔN (residues 26-324) of the CYRI-BΔN:Rac1Q61L fusion (from UniProt Q9NUQ9 26-324) (domain or fragment)”, the binding entry is “no binding”.

Values taken from publication PMC7955166.
